From PubChem BioAssay
This is a selection; strong and weak results do not stand in their true shares. Activity calls are given as the source filed them.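 The calls were made as follows: active = inhibition above a set limit taken from the earlier primary screen (cut at about 63% in these data); inactive = the rest.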

Assay: suppression of KLF5 promoter-driven luciferase – DLD-1 cells, luminescence, confirmation (AID 1834);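 also: 0% = DMSO wells and 100% = LY294002 at 200 µM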
Conditions: DLD-1 KLF5 promoter firefly luciferase reporter, at 4 µM, hits give high values

With `CN[C@H]1C[C@H]2O[C@@](C)([C@H]1OC)n1c3ccccc3c3c4c(c5c6ccccc6n2c5c31)C(=O)NC4` the inhibition was active: 115%.
